For 107 sequences, z-score results are on record in PubChem BioAssay AID1508600 (Functional Genomics Laboratory (NCATS/FGL), 2020).

The campaign covered roughly 53,000 sequences. About 3,700 (7%) were called active.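 The calls were made as follows: active = gene knockdowns whose robust z-score for IL-1 alpha signal is at least 2 or at most -2, so actives lie on both sides; inactive = the rest.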 The list shows a part of the results.

This assay in a line: Components of the Cytosolic LPS Sensing Pathway: Gene Identification via Genome-wide siRNA Screen.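 Also: robust z of the log signal after scaling to non-targeting control siRNA wells of the plate.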 Conditions: RAW264.7 macrophages, IL-1a HTRF, actives lie on both sides, screened at 100 nM (by protocol), cells primed 5 h with Pam3CSK4 first. The procedure, abridged:
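Knockdown: 100 nM siRNA, 48h, RAW264.7. Stimulation: Pam3CSK4 5 h, then LipidA via TransIT-TKO 24 h. Output: supernatant IL-1a HTRF, negative-control-normalized, log robust z-score; viability by CellTiter-Glo.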
On the technique in general: In TR-FRET formats the signal depends on donor and acceptor labels being close together.
GGAUGUGACAUGAAUCCUGTT against Ankle1: the z-score was inactive: -0.49.
For the sequence GGCAAAGGAUCUCAACGGATT against Msh6, the z-score is inactive: -0.702.
In the case of CGUAUGGAGAUACCACACATT against Hpd, the z-score was inactive: 0.516.
On to GCCUAGACCUAAGCAUAGCTT against Prpmp5, for which the z-score was inactive: 0.228.
CCGAAAAGUGAUAUGCUUUTT against Akap4: the z-score was inactive: -0.645.
As to GGAUCUUCAGGUUCUGAUGTT against Mmadhc, the z-score was inactive: 1.18.
As to GGAGAUCCUCAUUUGUGUGTT against Ftmt, the z-score was inactive: -1.99.
Turning to CCAAAAACCACAGUCCACCTT against Dnajb12, the z-score was inactive: 0.472.
Next, GGUCAGAAAGACAAUCGCCTT against Nptx1: inactive: -0.182; GAGCCAAAUUAGCAGCUUGTT against Rln3: inactive: -0.873; GGAGAUAGGAGCGAUUGCUTT against Dpys: inactive: -1.07.
As to GGCAAUCUGGAACAACAUATT against Ano6, the z-score is inactive: -1.59.
With CGAGAAAGCAUAUAUAAUGTT against Mapk1ip1l the figure was inactive: 1.12; with GGAUGGCUCUAUUUUUUUATT against Mab21l3, inactive: 0.114.
With CCGUCAUCUGGAGAGAAACTT against Dtx3l the figure was inactive: 0.0937.
As for GGCAGAAAUCCAUCAGAGATT against Rtkn2, the z-score is inactive: -0.349.
With GCUAUUUCACCGUCAGAAUTT against Primpol the figure was inactive: 0.355; with GGUAGACUCUGACUUUGACTT against Vps72, inactive: -0.676; with GGACACUCAAAAACAACUGTT against Serpina3b, inactive: -0.509.
Consider GGAUUCUGCAUGUUUGUACTT against Cds2, for which the z-score is inactive: -0.403.
Consider GGUACAUCUUAGAGGCCAATT against Epo, for which the z-score was active: 2.66.
As for CGGAAGUCAAUUUUGAAAATT against Il31ra, the z-score is inactive: -0.466.
For ACCUCAAGACAGUGCAAAUTT against H2bc4, the z-score was inactive: -1.41.
With GGCCUGGACAUCUCUUCUCTT against Taf7 the figure was inactive: -1.98; with GAGACUCUAUUUGAGGAUUTT against Gm5414, inactive: -0.295; with GGUUCCUAGUAUUAUGUACTT against Fam136a, inactive: 1.42.
Take GCGAGAUCACUUUCCAAUCTT against Ddr2: the z-score was inactive: -0.825.
Turning to GCUCUUUGACCUUGGCAAATT against Mdp1, the z-score was inactive: 1.38.
GGAGAAAUUCCCUUGCCACTT against Kbtbd12: the z-score is inactive: -0.0157.
On to CCUGCUACCUUAACUCUAATT against Tmem45a, for which the z-score was inactive: 1.19.
“CCCGUACAUUGAGUGCAAUTT against 6330403K07Rik”: the z-score is inactive: 0.414.
With CGUAUACAAAUGUCCGGUATT against Itga11 the figure was inactive: 0.485.
For GCCUACUUGUGUAUAAAGATT against Arhgap39, the z-score is inactive: -0.0847.
With GGAUGAAGAGCAUAACAGUTT against Sft2d2 the figure was inactive: -0.95; with GGUGCAAGUUUUGGUGGGATT against Etfbkmt, inactive: 0.35; with GGUAUUUUUACAUUCCCUUTT against Slc39a11, inactive: 0.175.
With GGUAGAACUUAUUGUGGACTT against Ly6f the figure was inactive: -0.692.
Turning to GGAACUGUCAUGACAUUUCTT against Ddt, the z-score was inactive: -1.62.
Turning to CCCUGGGAGUUGAAUUGUUTT against Aqp6, the z-score is inactive: -0.618.
Take GCUGGCCAAAUUCUGUGGUTT against Psph: the z-score was inactive: 0.282.
As to GGCAACAGCAAUGACAUCCTT against Dbnl, the z-score is inactive: -0.278.
For the sequence GCAUCUCAAGGAUCUUCGGTT against Syngr4, the z-score was inactive: -0.0821.
GGUGAAUGCAAGAUCACCUTT against Myl1: the z-score is inactive: 0.343.
With GCCUUGUGUGCUGUCCUCUTT against Ly6g5c the figure was inactive: -1.67; with “GGAAAAAGAAAGAAGGUUCTT against 4930483J18Rik”, inactive: -0.695.
On to “GGGACUAUUUCAACAAAGUTT against Spata31d1a”, for which the z-score was inactive: -0.429.
Regarding GCGGUUAUCUGCAUAUAGATT against Ahctf1, the z-score was active: -2.47.
As to GGAGAGGAAAAUUGUAUUUTT against Alox12, the z-score was inactive: -0.037.
Turning to GGAGUGGUAUAAGUCGAAATT against Prph, the z-score was inactive: 1.09.
For GGAACAUUUUGGAAAUGACTT against Fbxo25, the z-score was inactive: -0.625.
On to GGUCUUGAAACUCUGAAAGTT against Sult1a1, for which the z-score was inactive: -0.0379.
Turning to GGGCUAUCGGUUGACAAAUTT against Riok2, the z-score is inactive: 1.67.
Next, GGAUCGUGAGCUUCUAUUATT against Gask1a: inactive: 0.434.
Turning to GGUUCUCCAUUCUGUUUACTT against Slc35d1, the z-score is inactive: -1.19.
In the case of GCAGAGGACAGGCUUACUUTT against Vwa5b2, the z-score is inactive: -1.3.
As to GGCUUGUCCUGGCAUGAUGTT against Ptprn, the z-score was inactive: -1.73.
Turning to GGAGAAAAUGGACAGUCUATT against Twist1, the z-score is inactive: -1.93.
With GGAUCUUGUUGGUUAUCGATT against Syn3, the z-score is inactive: 0.601.
Regarding CGGCUUAAAUUGACAUUUCTT against Glul, the z-score was inactive: 0.199.
In the case of CCCGUGGUAAUAGAAAACGTT against Sepsecs, the z-score is inactive: 0.85.
GGAAAUCCUGAAGUUUCCUTT against Grk5: the z-score was active: 4.41.
On to GGAGGAGAUCAAAAAAAGATT against Cfl2, for which the z-score was inactive: -0.409.
Regarding CCAUACGAGUGACCAGUUGTT against Ctbp1, the z-score was inactive: -0.764.
On to CCAGACGAGGAGAACAUCATT against Samd4b, for which the z-score is inactive: -0.111.
With GGGAGAGCGUAAGAUCUUUTT against Tln1 the figure was inactive: 0.839.
GGAAGCGUAAAUAAGUGUCTT against Emp2: the z-score was inactive: 0.772.
With GGCUUGGUUUUAAAUGAUGTT against Il17rd the figure was inactive: -0.417.
Regarding CCCAGCUAUGCGAUCUUAATT against Zfp946, the z-score was inactive: 0.017.
With CCUUCAGACCUCCUUAUUATT against Hgd the figure was inactive: 0.965; with GGGAUUACCACCCAUCCUATT against Atp5b, inactive: -0.0321; with CCAAUACGAACAACUUGCATT against Krt10, inactive: -0.694.
For GGGAAGUGACAUAUUCUCGTT against Brf2, the z-score was inactive: -0.277.
On to CCCAUUUCCGGAGCUCACUTT against Grb10, for which the z-score was inactive: 0.4.
As for GCAGAUAUGACGAUUAAAUTT against Pafah1b1, the z-score was inactive: 0.115.
For the sequence CCUAGAGGAUUCAGAUCAATT against Pnmal1, the z-score is active: 2.24.
With GCAUUCCUUGUCUGCUAUUTT against Fgd3, the z-score is inactive: 0.961.
For GAGAAGAAGCCUAACCUCATT against Ang, the z-score was inactive: 0.607.
Next, CCACUAGACUUCAAUGACUTT against Zeb2: inactive: -1.12; GGUUUUAGGACACCUGGUUTT against Gys1: active: 2.13.
With GCGGGUUAUUAACAUAUUUTT against Dlg1, the z-score is inactive: -0.0709.
With GGAUACCCUGCUUCCAAAATT against Hpd the figure was active: 2.23; with CCUCUCCAACAACCAACUATT against Lrrc47, inactive: -0.27; with CCUACUGUCUAAGAAUACATT against Olfr1138, inactive: -1.65.
Turning to GGUAUCAACAUCACGAUUCTT against Mrgpra1, the z-score is inactive: 0.487.
Consider GGAUUUAUUGACCUCUUAATT against Sp8, for which the z-score is active: 2.41.
Take GGAGCUGUUGAGUGUUUAUTT against Ngly1: the z-score was inactive: -0.378.
As for GCGUGAGGUCUUGUCAUCATT against Foxn4, the z-score is inactive: -0.982.
With GGAAUUGCUAUCUUUUGCATT against Stt3a, the z-score was inactive: 0.137.
Next, GGAAAACCUGCCUAGGAAATT against Rad21: inactive: -2; GGAGUUAAGAAUAACCAAUTT against Epm2aip1: inactive: -0.526; GGCCAUCAAGAGUUUCUUUTT against Nr0b1: inactive: 0.876.
With GGCUUACAUUGACAUUAAATT against F5, the z-score was inactive: 0.123.
GGAAUGAGUUCCUUUAAAATT against Svs5: the z-score is inactive: 0.119.
As to GCUUCUAGGGAUCCAAUACTT against Ceacam20, the z-score is inactive: 0.0517.
As to GAAGAUCUUGAAGCUUACUTT against Commd4, the z-score is inactive: -1.92.
Consider GGAAGUCAGUAAUCCUCUGTT against Ooep, for which the z-score is inactive: 0.939.
As for GGAUCAAACAAAUCAUCAATT against Plscr4, the z-score is inactive: -0.895.
Next, GGCUAUCUCCAAUUUCAACTT against Slc46a2: inactive: 0.927.
In the case of GGAUCCAGAGAUUCAAUUCTT against Vcam1, the z-score is inactive: 0.881.
With CCACUAAGGUUUGAAGAAGTT against Nes, the z-score is inactive: 1.21.
With UUGGAAGUGGCCAUGUAGGTT against Gm5622 the figure was inactive: 1.65.
As to GCCUCGAUCUGAUCUAGAGTT against Dbx2, the z-score was inactive: 0.291.
In the case of GGAGAACCGUAACAACAACTT against Cacna1a, the z-score is inactive: 0.692.
On to CCCAUAAGUAUUAAAGUGGTT against Adipoq, for which the z-score is inactive: -0.867.
With GGAACAAAAAGUUUCCCUUTT against Dnaja3 the figure was inactive: 0.541; with CCUGAUUCCAAAUGUGUUUTT against Sgcb, inactive: 0.158; with GGAAUCCACGUUCUAGAUUTT against Ptp4a2, inactive: -1.06.
